Source: the supplement of paper PMC10727501
The list shows a part of the results. Repeats in this data set agree poorly, so a single value says little.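 Free-swimming zebrafish larvae were assessed for O-bend response probability to dark flashes (naive: first five; training: remaining flashes across four 60-flash blocks; test: later 60-flash block) and for OMR turning toward alternating leftward/rightward LED motion. Six treated larvae were compared against sixty 0.1% DMSO controls; hits required |SSMD|≥2.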 Peptide text beside a SMILES is read from it. * marks the point of attachment. Cbz = O=C(OCc1ccccc1)*

What was measured:
Conditions in all cases: 10 µM; pre-incubation: 30-90 min
[1] = system: Danio rerio larvae (5 dpf, TLF); experiment: OMR-Perf (SSMD vs DMSO vehicle); higher = higher than vehicle (e.g. higher dark-flash O-bend response probability, or better optomotor performance)
[2] = system: Danio rerio larvae (5 dpf, TLF); experiment: Prob-Test (SSMD vs DMSO vehicle); higher = higher than vehicle (e.g. higher dark-flash O-bend response probability, or better optomotor performance)
[3] = system: Danio rerio larvae (5 dpf, TLF); experiment: Prob-Naive (SSMD vs DMSO vehicle); higher = higher than vehicle (e.g. higher dark-flash O-bend response probability, or better optomotor performance)
[4] = system: Danio rerio larvae (5 dpf, TLF); experiment: Prob-Train (SSMD vs DMSO vehicle); higher = higher than vehicle (e.g. higher dark-flash O-bend response probability, or better optomotor performance)

Row | Compound | OMR-Perf [1] | Prob-Test [2] | Prob-Naive [3] | Prob-Train [4]
1 | Nc1nc(N)c2nc(-c3cccc(O)c3)c(-c3cccc(O)c3)nc2n1 | 0.248 | 0.231 | 0.471 | 0.459
2 | CC1(C)O[C@@H]2[C@@H](CO[C@@]3(COS(N)(=O)=O)OC(C)(C)O[C@@H]23)O1 [Topiramate] | -0.381 | -0.411 | -0.357 | 0.0272
3 | CCCCc1nc(Cl)c(CO)n1Cc1ccc(-c2ccccc2-c2nnn[nH]2)cc1.[K] [Losartan Potassium (DuP 753)] | -0.467 | -0.274 | 0.1 | -0.456
4 | CC(C)C[C@@H](C=O)NC(=O)[C@H](CC(C)C)NC(=O)[C@H](CC(C)C)NC(=O)OCc1ccccc1 (Cbz-Leu-Leu-Leu-aldehyde) | 0.109 | 0.42 | -0.301 | 0.0897
5 | CCc1nc(-c2cccc(C)c2)c(-c2ccnc(NC(=O)c3ccccc3)c2)s1 | -0.506 | -0.789 | -0.137 | -0.748
6 | O=C(O)C1=CO[C@@H](O[C@@H]2O[C@H](CO)[C@@H](O)[C@H](O)[C@@H]2O)[C@@H]2C(CO)=CC[C@H]12 [Geniposidic acid] | 0.0732 | 0.277 | -0.365 | 0.39
7 | Cl.NC12CC3CC(CC(C3)C1)C2 [Amantadine HCl] | 0.166 | -0.215 | -0.296 | -0.195
8 | O=c1[nH]cc(F)c(=O)[nH]1 [Fluorouracil (5-Fluoracil, 5-FU)] | -0.71 | -0.244 | 0.454 | 0.28
9 | CC1Cc2ccccc2N1NC(=O)c1ccc(Cl)c(S(N)(=O)=O)c1 (centres undefined) [Indapamide] | 0.334 | -0.0906 | -0.0365 | 0.167
10 | CN(C)[C@@H]1C(O)=C(C(N)=O)C(=O)[C@@]2(O)C(O)=C3C(=O)c4c(O)ccc(Cl)c4[C@@](C)(O)C3C[C@@H]12.Cl (some centres undefined) [Chlortetracycline HCl] | 0.778 | -0.497 | 0.28 | -0.347
11 | CC(=O)/N=c1\sc(S(N)(=O)=O)nn1C [Methazolamide] | -1.27 | -0.316 | 0.302 | -0.31
12 | CN(C)[C@@H]1C(O)=C(C(N)=O)C(=O)[C@@]2(O)C(O)=C3C(=O)c4c(O)cccc4[C@@](C)(O)[C@H]3C[C@@H]12.Cl [Tetracycline HCl] | -0.392 | -0.0987 | -0.683 | -0.719
13 | CCS(=O)(=O)CCn1c([N+](=O)[O-])cnc1C [Tinidazole] | 0.213 | 0.0018 | 0.402 | 0.132
14 | CN(C)[C@H]1C(O)=C(C(N)=O)C(=O)[C@@]2(O)C(O)=C3C(=O)c4c(O)cccc4[C@](C)(O)[C@H]3[C@@H](O)[C@@H]12.O.O [Oxytetracycline dihydrate] | -0.0991 | 0.42 | 0.131 | 0.0586
15 | CN(C)c1cc(NC(=O)CNC(C)(C)C)c(O)c2c1C[C@H]1C[C@H]3[C@@H](N(C)C)C(O)=C(C(N)=O)C(=O)[C@@]3(O)C(O)=C1C2=O [Tigecycline] | -0.551 | 0.153 | 0.748 | 0.25
16 | O=C(NCCN1CCOCC1)c1ccc(Cl)cc1 | 0.169 | 0.0214 | -0.422 | -0.327
17 | Cl.Clc1cccc(Cl)c1NC1=NCCN1 [Clonidine HCl] | -0.45 | -0.775 | -0.354 | -0.889
18 | CCn1c(=O)c2c(nc(/C=C/c3ccc(OC)c(OC)c3)n2C)n(CC)c1=O [Istradefylline] | 0.239 | -0.0247 | 0.42 | -1.25
19 | Cc1cc(N)c2ccccc2[n+]1CCCCCCCCCC[n+]1c(C)cc(N)c2ccccc21.[Cl-].[Cl-] [Dequalinium chloride] | 0.263 | 0.347 | 0.457 | 0.896
20 | C=CC(=O)Nc1ccc2ncnc(Nc3cccc(Br)c3)c2c1 | 0.394 | -0.34 | -0.17 | -0.801
21 | O=C([O-])c1cc(=O)c2c(OCC(O)COc3cccc4oc(C(=O)[O-])cc(=O)c34)cccc2o1.[Na+].[Na+] [Disodium Cromoglycate] | 0.0682 | 0.0663 | 0.421 | 0.663
22 | CN1CCC(OC(c2ccccc2)c2ccccc2)CC1.Cl [Diphenylpyraline HCl] | 0.67 | 1.12 | 0.0876 | 0.558
23 | CN(C)CC(=O)Nc1ccc2[nH]c(=O)c3ccccc3c2c1 | -0.634 | -0.742 | -0.0813 | -0.897
24 | Nc1nc(N)c2nc(-c3ccccc3)c(N)nc2n1 [Triamterene] | 0.241 | 0.38 | 0.464 | 0.335
25 | CCCCOc1cc(C(=O)OCCN(CC)CC)ccc1N.Cl [Oxybuprocaine HCl] | -0.27 | -0.626 | 0.312 | -0.26
26 | CC#CCn1c(N2CCC[C@@H](N)C2)nc2c1c(=O)n(Cc1nc(C)c3ccccc3n1)c(=O)n2C [Linagliptin] | 0.322 | -0.158 | 0.0934 | -0.468

Rewritten as a markdown table: part of the list above.

| Row | Compound | OMR-Perf [1] | Prob-Test [2] | Prob-Naive [3] | Prob-Train [4] |
| --- | --- | --- | --- | --- | --- |
| 25 | CCCCOc1cc(C(=O)OCCN(CC)CC)ccc1N.Cl [Oxybuprocaine HCl] | -0.27 | -0.626 | 0.312 | -0.26 |
| 26 | CC#CCn1c(N2CCC[C@@H](N)C2)nc2c1c(=O)n(Cc1nc(C)c3ccccc3n1)c(=O)n2C [Linagliptin] | 0.322 | -0.158 | 0.0934 | -0.468 |
